For part of its entries the source gives two or more results. This is not the full list of results. There may be further records. The values listed for one entry differ, and nothing given here explains why; some may be repeats, others may stem from another dose, organism or construct than stated.
Tests used:
[1] = system: PSEN1 versus PSEN2 γ-secretase complexes; assay: Comparison of the four MEF cell lines: selectivity between γ-secretase complexes (IC50 ratios); type: cell-based, human
[2] = target: PSEN1 L166A–APH1A γ-secretase complex (Homo sapiens, UniProt P49768, L166A); assay: Aβ40 secretion, MEF cell pool restored with PSEN1 L166A–APH1A; conditions: decimal comma

IC50 fold change to WT [2]	SMILES	selectivity toward the different γ-secretase complexes [1]
	CC(C)C[C@H](NC(=O)[C@H](Cc1ccccc1)C[C@@H](O)[C@H](Cc1ccccc1)NC(=O)OC(C)(C)C)C(=O)N[C@@H](Cc1ccccc1)C(N)=O [L-685,458]	< 10 fold and little or no selectivity
	CC(C)C[C@H](NC(=O)[C@H](Cc1ccccc1)C[C@@H](O)[C@H](Cc1ccccc1)NC(=O)OC(C)(C)C)C(=O)N[C@@H](Cc1ccccc1)C(=O)O (single isomer, unassigned)	< 10 fold and little or no selectivity
8,122 fold and > 3 fold	C[C@H](NC(=O)Cc1cc(F)cc(F)c1)C(=O)N[C@H](C(=O)OC(C)(C)C)c1ccccc1 [DAPT]	

Source: PMC10318456, “Selective inhibitors of the PSEN1–gamma-secretase complex” (The Journal of Biological Chemistry, 2023)
